In patent US9216971B2 (priority 2007, dated 2015):
Some entries share one result that the patent states for a list of compounds.

Test system: MCh response
Details: rat, in vivo

C[N+](C)(CCc1cccc(O)c1)C1CCN(C(=O)[C@](O)(c2ccccc2)C2CCCC2)CC1 [Example 2, [1-((R)-2-cyclopentyl-2-hydroxy-2-phenylacetyl)piperidin-4-yl][2-(3-hydroxyphenyl)ethyl]dimethylammonium]
% inhibition of MCh response relative to control animals: greater than 35%

C[N+](C)(CCc1ccccc1)C1CCN(C(=O)[C@](O)(c2ccccc2)C2CCCC2)CC1 [Example 1, [1-((R)-2-cyclopentyl-2-hydroxy-2-phenylacetyl)piperidin-4-yl]dimethylphenethylammonium]
% inhibition of MCh response relative to control animals: greater than 35%
